According to article PMC7989706:
No constants are given. Whether binding was seen depends on the method and setting. In cells and extracts the contact can be indirect. A yes stands for co-enrichment or nearness to the bait. Other partners may have been found.

The chains behind the UniProt entries cited, without tags or fusion partners.
UniProt P46940: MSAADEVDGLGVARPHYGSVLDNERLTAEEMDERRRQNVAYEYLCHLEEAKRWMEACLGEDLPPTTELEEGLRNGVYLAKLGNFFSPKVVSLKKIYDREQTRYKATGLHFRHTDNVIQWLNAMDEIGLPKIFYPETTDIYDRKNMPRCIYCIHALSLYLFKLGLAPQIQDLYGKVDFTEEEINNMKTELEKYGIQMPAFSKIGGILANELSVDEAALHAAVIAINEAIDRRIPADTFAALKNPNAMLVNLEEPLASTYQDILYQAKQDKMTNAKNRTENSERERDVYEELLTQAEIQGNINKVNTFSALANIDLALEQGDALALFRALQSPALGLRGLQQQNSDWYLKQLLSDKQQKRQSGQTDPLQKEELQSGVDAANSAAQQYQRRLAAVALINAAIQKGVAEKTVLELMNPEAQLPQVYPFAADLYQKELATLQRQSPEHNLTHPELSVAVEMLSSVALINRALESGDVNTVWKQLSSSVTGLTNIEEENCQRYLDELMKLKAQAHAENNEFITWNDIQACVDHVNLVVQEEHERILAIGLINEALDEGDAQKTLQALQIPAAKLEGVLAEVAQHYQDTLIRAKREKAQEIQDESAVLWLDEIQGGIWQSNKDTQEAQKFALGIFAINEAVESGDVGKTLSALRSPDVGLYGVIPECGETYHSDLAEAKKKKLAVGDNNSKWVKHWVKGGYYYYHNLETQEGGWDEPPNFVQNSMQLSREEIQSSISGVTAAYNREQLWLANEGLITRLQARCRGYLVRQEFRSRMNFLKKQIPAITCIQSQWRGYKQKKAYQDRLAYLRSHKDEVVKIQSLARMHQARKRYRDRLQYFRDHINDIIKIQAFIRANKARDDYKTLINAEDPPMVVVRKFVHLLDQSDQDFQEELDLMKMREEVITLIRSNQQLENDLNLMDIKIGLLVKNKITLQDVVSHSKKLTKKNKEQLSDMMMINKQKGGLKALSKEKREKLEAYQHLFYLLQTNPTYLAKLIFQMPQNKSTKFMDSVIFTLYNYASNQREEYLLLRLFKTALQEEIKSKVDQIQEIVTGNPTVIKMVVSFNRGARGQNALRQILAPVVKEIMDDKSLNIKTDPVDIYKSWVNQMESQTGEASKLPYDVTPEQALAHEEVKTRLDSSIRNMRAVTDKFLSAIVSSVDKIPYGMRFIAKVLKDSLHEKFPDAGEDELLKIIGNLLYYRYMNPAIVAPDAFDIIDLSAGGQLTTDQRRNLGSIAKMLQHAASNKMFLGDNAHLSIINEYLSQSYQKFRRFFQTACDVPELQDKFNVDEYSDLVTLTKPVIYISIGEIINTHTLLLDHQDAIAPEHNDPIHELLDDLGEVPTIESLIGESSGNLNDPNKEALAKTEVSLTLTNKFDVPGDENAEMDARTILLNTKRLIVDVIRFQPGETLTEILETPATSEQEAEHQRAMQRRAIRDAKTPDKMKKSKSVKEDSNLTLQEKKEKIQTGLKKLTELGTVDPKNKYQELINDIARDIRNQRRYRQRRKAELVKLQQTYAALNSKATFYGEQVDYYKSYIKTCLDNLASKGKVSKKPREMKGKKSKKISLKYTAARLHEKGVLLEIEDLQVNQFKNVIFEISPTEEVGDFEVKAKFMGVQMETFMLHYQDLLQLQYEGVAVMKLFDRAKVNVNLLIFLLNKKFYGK

Target: obesity-associated protein (FTO) (human (endogenous in MHCC97H)) (UniProt Q9C0B1)
Assay: affinity purification with mass spectrometry; IP with an antibody against FTO from lysates of MHCC97H cells with AMD1 knock-down and control cells; mass spectrometry with open search strategy and Mascot search engine

binding: binds
Substance: Ras GTPase-activating-like protein 1 (IQGAP1) (from UniProt P46940 1-1657)
